This note sets out measurements from patent US20240252689A1, “POLY-ADP RIBOSE (PAR) TRACKER OPTIMIZED SPLIT-PROTEIN REASSEMBLY PAR DETECTION REAGENTS” (THE BOARD OF REGENTS OF THE UNIVERSITY OF TEXAS SYSTEM, priority 2021, published 2024).

This data set relates to PARylation. In words: Dual luciferase assay with PAR-T NanoLuc in MDA-MB-231-Luc cells, cell number titration. The format is cell-based, human.

B1: PAR-T NanoLuc: WWE-based split Nano Luciferase fusion protein pair, C-terminal fragment fused to LSSmOrange (SEQ ID NO: 15 and 16) (protein)
chain 1: MDYKDDDDKLEATGNGEYAWYYEGRNGWWQYDERTSRELEDAFSKGKKNTEMLIAGFLYVADLENMVQYRRNEHGRRRKIKRDIIDIPKKGVAGLRLEFSTGHGTGSTGSGSSGTASSESTGSSVFTLEDFVGDWEQTAAYNLDQVLEQGGVSSLLQNLAVSVTPIQRIVRSGENALKIDIHVIIPYEGLSADQMAQIEEVFKVVYPVDDHHFKVILPYGTLVIDGVTPNMLNYFGRPYEGIAVFDGKKITVTGTLWNGNKIIDERLITPDGSMLFRVTINS
chain 2: MDYKDDDDKLEATGNGEYAWYYEGRNGWWQYDERTSRELEDAFSKGKKNTEMLIAGFLYVADLENMVQYRRNEHGRRRKIKRDIIDIPKKGVAGLRLEFSTGHGTGSTGSGSSGTASSESTGSSVTGYRLFEEILDISGGMVSKGEENNMAIIKEFMRFKVRMEGSVNGHEFEIEGEGEGRPYEGFQTVKLKVTKGGPLPFAWDILSPQFTYGSKAYVKHPADIPDYLKLSFPEGFKWERVMNFEDGGVVTVTQDSSLQDGEFIYKVKLRGTNFPSDGPVMQKKTMGMEASSERMYPEDGALKGEDKLRLKLKDGGHYTSEVKTTYKAKKPVQLPGAYIVDIKLDITSHNEDYTIVEQYERAEGRHSTGGMDELYK
Turning to B1, the dynamic range result (1000 cells) is “approximately two-fold”. Also, the “number of cells in which PARylation can be detected” value (MDA-MB-231-Luc cells) was determined as 1000 cells.
